Assay results published in article PMC5996148.
This is one part of the list. For some assays here: The exact form of the protein is not confirmed.

Sequences of proteins named here, by UniProt entry; tags and fusion partners are left off. A change or cut given only in a name is not applied to a line headed by its entry.
UniProt Q9BUP3: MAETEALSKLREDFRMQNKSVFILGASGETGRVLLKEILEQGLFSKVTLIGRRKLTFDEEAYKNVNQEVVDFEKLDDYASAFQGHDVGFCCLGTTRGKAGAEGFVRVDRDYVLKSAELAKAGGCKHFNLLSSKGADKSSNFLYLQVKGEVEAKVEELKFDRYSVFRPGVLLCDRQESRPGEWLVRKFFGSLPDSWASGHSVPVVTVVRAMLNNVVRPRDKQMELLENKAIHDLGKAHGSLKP

How the values were obtained:
Assay in all cases: protein microarray (ProtoArray v5.0), streptavidin-Alexa Fluor 647
Details in all cases: 3'-biotin; 20 mM Tris (pH 7.5), 5 mM MgCl2, 100 mM KCl, 0.1% Tween-20, A/T-rich and random oligonucleotide blockers; temperature not stated; high values mean tight binding
HSPBAP1 (human) = tested on: HSPBAP1 (human)
HSPBP1 (human) = tested on: HSPBP1 (human)
HSPC111 (human) = tested on: HSPC111 (human)
HSPC142 (human) = tested on: HSPC142 (human)
HTATIP2 = HTATIP2 (UniProt Q9BUP3)
HYPK (human) = tested on: HYPK (human)
[1] = tested on: Hemoglobin subunit mu (human)
[2] = tested on: Hexaprenyldihydroxybenzoate methyltransferase, mitochondrial (human)
Hexokinase-3 (human) = tested on: Hexokinase-3 (human)
[3] = tested on: High affinity cAMP-specific and IBMX-insensitive 3prime,5prime-cyclic phosphodiesterase 8A (human)
[4] = tested on: Histone H2B type 1-D (human)
[5] = tested on: Histone H2B type 1-H (human)
[6] = tested on: Histone deacetylase 10 (human)
[7] = tested on: Homeobox protein BarH-like 1 (human)
[8] = tested on: Homeobox protein Hox-B6 (human)
[9] = tested on: Hsp90 co-chaperone Cdc37-like 1 (human)
[10] = tested on: Huntingtin-interacting protein M (human)
[11] = tested on: Hydroxysteroid dehydrogenase-like protein 1 (human)
ICEBERG (human) = tested on: ICEBERG (human)
IDH3B (human) = tested on: IDH3B (human)

Sequence: GGTGACAGGGGTATGGGGAGGGG [G4-2 biotinylated (Ct1)]
- binding signal (HSPBAP1 (human)): -0.367 z-score
- binding signal (HSPBP1 (human)): -0.398 z-score
- binding signal (HSPC111 (human)): 6.78 z-score
- binding signal (HSPC142 (human)): -0.396 z-score
- binding signal (HTATIP2): -0.387 z-score
- binding signal (HYPK (human)): -0.385 z-score
- binding signal [1]: -0.396 z-score
- binding signal [2]: -0.399 z-score
- binding signal (Hexokinase-3 (human)): -0.385 z-score
- binding signal [3]: -0.383 z-score
- binding signal [4]: 3.36 z-score
- binding signal [5]: 3.61 z-score
- binding signal [6]: -0.379 z-score
- binding signal [7]: 3.17 z-score
- binding signal [8]: -0.398 z-score
- binding signal [9]: -0.397 z-score
- binding signal [10]: -0.386 z-score
- binding signal [11]: -0.372 z-score
- binding signal (ICEBERG (human)): -0.38 z-score
- binding signal (IDH3B (human)): -0.376 z-score
